From PubChem BioAssay AID192 (DTP/NCI, 2004)
The list does not hold the whole screen: it is rich in T/C values a quarter to a half above the control, in often repeated tests (any T/C) and in doses without a T/C. Further doses and runs are listed elsewhere. T/C gives the treated animals as a percentage of the vehicle group. Some entries give survivors of the animals treated and no T/C: the source holds a T/C of zero for them, seemingly a mark for toxic or unscored doses. Some doses without a T/C left all or most animals alive at the check, yet need not have been tolerated: survival well below the control is almost never listed, so the zero probably covers shortened survival too. Survivors were counted at the toxicity check, usually on the fifth day, unless a day is given; later deaths do not show. Schedules are NCI's codes, read here as Q, the interval in days (D) or hours (H), X, the number of doses. Some entries were tested several times; the values are given in rising order. Some schedule codes hold Z or #, which are not explained here. Some structures stand for samples that the source files as different forms (salt, stereo form or complex); doses refer to the form tested. For survival time, this PubChem deposit counts one and a half times the control or more as active, and values a quarter to a half above the control carry no call in these data; other NCI protocols may use other cut-offs. Some T/C values carry the count of animals alive at the toxicity check (mostly the fifth day); where none is given, no animal had died by that day.

Tested on: BDF1 mice, B16 melanoma ip, median survival T/C
Assay: NCI In Vivo Anticancer Drug Screen. Data for tumor model B16 Melanoma (intraperitoneal) in B6D2F1 (BDF1) mice
Conditions: T/C endpoint: median survival time, higher T/C = longer survival
Description: The antitumor activity of compounds was measured in mice bearing transplantable tumors. Survival or tumor size were measured and the results are expressed as the measurement made in the treated group (T) divided by the measurement made in the vehicle treated control group (C). The tumor model used in this assay is B16 Melanoma (intraperitoneal) in B6D2F1 (BDF1) mice

[1] = dose: 25.0 mg/kg/injection, schedule: Q01DX009 (ip), vehicle: saline
[2] = dose: 400.0 mg/kg/injection, schedule: Q01DX009 (ip), vehicle: Klucel (hydroxypropylcellulose) (HPC)
[3] = dose: 100.0 mg/kg/injection, schedule: Q01DX009 (ip), vehicle: Klucel (hydroxypropylcellulose) (HPC)
[4] = dose: 50.0 mg/kg/injection, schedule: Q01DX009 (ip), vehicle: saline
[5] = dose: 100.0 mg/kg/injection, schedule: Q01DX009 (ip), vehicle: saline
[6] = dose: 400.0 mg/kg/injection, schedule: Q01DX009 (ip), vehicle: saline with Tween-80
[7] = dose: 200.0 mg/kg/injection, schedule: Q01DX009 (ip), vehicle: saline with Tween-80

In the case of `C=CCN(CC=C)CCN1CCN(CCCN2c3ccccc3Sc3ccc(C(F)(F)F)cc32)CC1`, the survivor count [1] is reported as 7 of 10.
With `Cc1c[nH]c(=O)[nH]c1=O` the T/C (dose: 128.0 mg/kg/injection, schedule: Q01DX009 (ip), vehicle: saline with Tween-80) was 126 % of control [9 of 10 alive] and the T/C (dose: 256.0 mg/kg/injection, schedule: Q01DX009 (ip), vehicle: saline with Tween-80) was 131 % of control.
`C=CCNC(=O)/C=C/C(=O)NCC=C` was tested, and the survivor count (dose: 50.0 mg/kg/injection, schedule: Q04DX003 (ip), vehicle: saline with Tween-80) was 10 of 10.
`Cc1cc(=O)n2c3c(c(N)ccc13)OC2` was tested, and the survivor count [2] was 10 of 10.
In the case of `CCN(Cc1ccc(Cl)c(Cl)c1)c1ccc2nc(N)nc(N)c2c1C`, the survivor count (dose: 1.56 mg/kg/injection, schedule: Q01DX009 (ip), vehicle: Klucel (hydroxypropylcellulose) (HPC)) is reported as 8 of 10, the survivor count (dose: 12.5 mg/kg/injection, schedule: Q01DX009 (ip), vehicle: Klucel (hydroxypropylcellulose) (HPC)) is reported as 8 of 10 and the survivor count (dose: 25.0 mg/kg/injection, schedule: Q01DX009 (ip), vehicle: Klucel (hydroxypropylcellulose) (HPC)) is reported as 7 of 10. For the same molecule, the survivor count (dose: 25.0 mg/kg/injection, schedule: Q01DX009 (ip), vehicle: distilled water + Tween-80) was 9 of 10, the survivor count (dose: 50.0 mg/kg/injection, schedule: Q01DX009 (ip), vehicle: Klucel (hydroxypropylcellulose) (HPC)) was 6 of 10 and the survivor count (dose: 50.0 mg/kg/injection, schedule: Q01DX009 (ip), vehicle: distilled water + Tween-80) was 8 of 10. The survivor count [3] was 0 of 10 and the survivor count (dose: 100.0 mg/kg/injection, schedule: Q01DX009 (ip), vehicle: distilled water + Tween-80) was 3 of 10.
For `COc1cccc2c1C(=O)c1c(O)c3c(c(O)c1C2=O)C[C@@](O)(/C(C)=N/NC(=O)c1ccccc1)C[C@@H]3OC1CC(N)C(O)C(C)O1` (some centres undefined), the T/C (dose: 0.37 mg/kg/injection, schedule: Q01DX009 (ip), vehicle: saline) was 129 % of control, the T/C (dose: 1.0 mg/kg/injection, schedule: Q01DX009 (ip), vehicle: water) was 144 % of control and the T/C (dose: 3.0 mg/kg/injection, schedule: Q04DX003 (ip), vehicle: saline) was 141 % of control. The survivor count (dose: 12.0 mg/kg/injection, schedule: Q01DX009 (ip), vehicle: saline) was 8 of 9 and 10 of 10, the T/C (dose: 24.0 mg/kg/injection, schedule: Q04DX003 (ip), vehicle: saline) was 127 % of control and the survivor count (dose: 32.0 mg/kg/injection, schedule: Q01DX001 (ip), vehicle: water) was 7 of 10 and 10 of 10. For the same molecule, the survivor count (dose: 64.0 mg/kg/injection, schedule: Q01DX001 (ip), vehicle: water) was 4 of 10, 5 of 10, 10 of 10 and the survivor count (dose: 128.0 mg/kg/injection, schedule: Q01DX001 (ip), vehicle: water) was 0 of 10 and 3 of 10.
With `CN(CO)c1nc(N(C)CO)nc(N(C)CO)n1` the T/C [4] was 146 % of control, the T/C [5] was 129 % of control and the survivor count [5] was 10 of 10. For the same molecule, the survivor count (dose: 200.0 mg/kg/injection, schedule: Q01DX009 (ip), vehicle: saline) was 7 of 10.
With `CC(C)(C[NH-])C[NH-].[Cl][Pt+2][Cl]` the T/C (dose: 0.25 mg/kg/injection, schedule: Q04DX003 (ip), vehicle: water) was 133 and 139 % of control, the T/C (dose: 0.5 mg/kg/injection, schedule: Q04DX003 (ip), vehicle: water) was 133 % of control and the survivor count (dose: 4.0 mg/kg/injection, schedule: Q04DX003 (ip), vehicle: water) was 10 of 10.
With `CCN(CC)P(=O)(N1CC1C)N1CC1C` (centres undefined) the survivor count (dose: 75.0 mg/kg/injection, schedule: Q01DX009 (ip), vehicle: saline) was 10 of 10.
`CCN(C(=O)c1ccc(Cl)cc1Cl)c1ccccc1C` was tested, and the survivor count [3] was 10 of 10, the survivor count (dose: 200.0 mg/kg/injection, schedule: Q01DX009 (ip), vehicle: Klucel (hydroxypropylcellulose) (HPC)) was 10 of 10 and the survivor count [2] was 10 of 10.
`N#CCN1CCCCC1` was tested, and the survivor count [1] was 10 of 10, the survivor count [4] was 9 of 10 and the survivor count [5] was 0 of 10.
For `CC(C)=CCC1=C(O)c2ccccc2C(=O)C1=O`, the survivor count (dose: 25.0 mg/kg/injection, schedule: Q01DX009 (ip), vehicle: saline with Tween-80) was 6 of 6, the T/C [1] was 133 % of control [5 of 6 alive] and the T/C [4] was 127 % of control. For the same molecule, the T/C [5] was 127 % of control, the survivor count (dose: 100.0 mg/kg/injection, schedule: Q#B X027 (ip), vehicle: water) was 4 of 6 and the survivor count (dose: 133.33 mg/kg/injection, schedule: Q#B X027 (ip), vehicle: water) was 0 of 6. For the same molecule, the survivor count (dose: 200.0 mg/kg/injection, schedule: Q#B X027 (oral), vehicle: water) was 1 of 6, the survivor count (dose: 200.0 mg/kg/injection, schedule: Q#B X027 (sc), vehicle: water) was 0 of 6 and the survivor count (dose: 266.66 mg/kg/injection, schedule: Q#B X027 (oral), vehicle: water) was 1 of 6. The survivor count [6] was 0 of 6.
With `CC(C)CC(Br)C(=O)NC(CC(C)C)C(=O)O` (centres undefined) the survivor count [7] was 10 of 10.
`CC(C)CN(C)/N=N/c1nc[nH]c1C(N)=O` was tested, and the T/C (dose: 37.5 mg/kg/injection, schedule: Q01DX009 (ip), vehicle: carboxymethylcellulose (CMC)) was 135 % of control, the survivor count (dose: 150.0 mg/kg/injection, schedule: Q01DX009 (ip), vehicle: carboxymethylcellulose (CMC)) was 5 of 6 and the survivor count (dose: 300.0 mg/kg/injection, schedule: Q01DX009 (ip), vehicle: carboxymethylcellulose (CMC)) was 0 of 6.
For `CC(C)C(Br)C(=O)NC(Cc1ccccc1)C(=O)O` (centres undefined), the survivor count [6] was 9 of 10.
`S=C=NCCc1ccccc1` was tested, and the survivor count (dose: 100.0 mg/kg/injection, schedule: Q01DX009 (ip), vehicle: saline with Tween-80) was 4 of 10.
With `COc1cc(/C=C/C(N)=O)cc(OC)c1OC` the survivor count [4] was 10 of 10 and the survivor count (dose: 400.0 mg/kg/injection, schedule: Q01DX009 (ip), vehicle: saline) was 9 of 10.
With `COc1cc(C(C)(C)C)cc(OC)c1C(O)(c1c(OC)cc(C(C)(C)C)cc1OC)c1c(OC)cc(C(C)(C)C)cc1OC` the survivor count [7] was 3 of 10.
For `NC(Cc1c[nH]c2ccc(N(CCCl)CCCl)cc12)C(=O)O` (centres undefined), the T/C (dose: 0.13 mg/kg/injection, schedule: Q01DX009 (ip), vehicle: saline with Tween-80) was 135 % of control and the survivor count (dose: 4.0 mg/kg/injection, schedule: Q01DX009 (ip), vehicle: saline with Tween-80) was 6 of 6.
For `CCN1/C(=C/C=C/C=C\C=C\c2sc3ccc4ccccc4c3[n+]2CC)Sc2ccc3ccccc3c21`, the survivor count (dose: 1.25 mg/kg/injection, schedule: Q01DX009 (ip), vehicle: saline with Tween-80) was 9 of 10, the survivor count (dose: 5.0 mg/kg/injection, schedule: Q01DX009 (ip), vehicle: saline with Tween-80) was 10 of 10 and the survivor count (dose: 40.0 mg/kg/injection, schedule: Q01DX009 (ip), vehicle: saline with Tween-80) was 9 of 10.
With `O=C1N[C@H]2[C@H](CS[C@H]2CCCCC(=O)N(CCP(c2ccccc2)c2ccccc2)CCP(c2ccccc2)c2ccccc2)N1` the T/C [3] was 136 % of control.
`CCOc1ccccc1NC(=O)CC(C)=O` was tested, and the survivor count [2] was 7 of 10.
With `COc1cccc2c1cc([N+](=O)[O-])c1c(C(=O)O)cc3c(c12)OCO3` the survivor count (dose: 2.5 mg/kg/injection, schedule: Q01DX009 (ip), vehicle: Klucel (hydroxypropylcellulose) (HPC)) was 10 of 10, the survivor count (dose: 5.0 mg/kg/injection, schedule: Q01DX009 (ip), vehicle: Klucel (hydroxypropylcellulose) (HPC)) was 10 of 10 and the survivor count (dose: 10.0 mg/kg/injection, schedule: Q01DX009 (ip), vehicle: Klucel (hydroxypropylcellulose) (HPC)) was 10 of 10.
